Results are given in words; binding and its absence hold for the method and conditions named. For part of these data: A result given as binding can be weak or reduced; the word gives no strength. Tags and fused reporters may be left off the sequences shown.
Assays:
Test in all cases: pull-down; GST-BTWC-2 bait proteins bound to GST magnetic beads, co-incubated with His-BTWC-1 proteins; washed, eluted, SDS-PAGE and Western blot with anti-GST and anti-His antibodies; both purified
[1] = biological target: GST-BTWC-2A (Blakeslea trispora)
[2] = biological target: GST-BTWC-2B (Blakeslea trispora)
[3] = biological target: GST-BTWC-2C (Blakeslea trispora)
[4] = biological target: GST-BTWC-2D (Blakeslea trispora)

B1: His-BTWC-1C (protein, UniProt A0A6G6CHV8 1-670)
chain: MNNSSASYLPNFSDNSYLPYSNEDADFNRIPHNSNTLNELPPNNRPASPTSNALAGVYSNTGFDMIQILSKLIHRPNPQIQLGPIDLSCSFVVSDARGYDCPVVYSSPAFERLTGYKNEEIIGKNCRFLQSPDGQVTCGSRRQHTDNQAVYHLKAQLNLGKEHQASIINYRKGGQPFVNLVTVVPTFGDDGQVDYFVGLQVDLVEQPNSILEKMKDGTYLINYHQPMSVPRTIPQRNNKLLLDSSSVMDEYFRELPTNNYHSNSNTSSTKSQPEHNSVVQNADIIGLLDPSQIDFESLSSLNGNNNEQQLLKEWNKVLLDQSCDFVHVLSLKGVFLYASQASKHMLEYEPKELVGNLLSSICHPSDIIPVMREIKETTTNPEKAINLLFRIRRKDSGYIWIDCRGKLHMDQSKGRKCLVLSGRERSVYSLMSHQITPSLSNTIESDLEYWAKLSLAGLYLYVTPTCKEVVGFTSDSLEQESIYQYAENNAITDITKALEIVKDGGIVRVPHTILNAKGTYVRVLSTFYPGDAIYSSGKPSFALLQVKAIPFDQNQDSLPLGIEPDVKNLNEAEGENIFAELSTFRSTNWQYELHQLQQSNKRLREQLDKYINPNKQRRKKKSKSSDLPKMCAKCQRKDSPEWRKGPNGPKELCNACGLRYAKSLSAQGKK
- binding [1]: binds

B2: His-BTWC-1A (protein, UniProt A0A3G1Z161 1-657)
chain: MSQQYQQQQHPALAYASATPLNIPGLTQPIRNDQQLQEMPTIDLRPMESTPTNISEAPLTGVYSSSGFDMIGVHSRLVNRPNPQINLGPIDMSCSFLVTDARQYDCPIVYCSPTFEHLTGYVATEIVGRNCRFLQAPDGQVTVGSRRTYTDNQAVYHLKAQMLQNKEHQASIINYRKGGQPFVNLITVIPITDDDGIVTFFVGLQVDLVEQPNAILEKMKNGTYMVNYQQMNIPPYIPGKNFNSEPVDDYFREVPSALPTHSSSALVSPPSAQASSEILSLVNCSGENEQQLQQEWNRLLLDQSEDFIHVLSLKGFFLYCSRSSSHLLEHDPEELVGHPLSSICHPSDIVPVMREIKEAASETGKVINLIFRVRRKYSGYMWMECQGKIHIDQSKGRKCLIMAGRERPMYQLFHKEIVDAQDIAQGSEFWTKASLNGLFLHVTSTSEEVVGFSADALEGATLYQYVGDEHMRDITRALELVRDGQIVNLHHTLQNNKGDYVSVLSTFYPGDTSFGKGRPSFTLVQIRAKETNDKTHSMDVIDSSASTTGETDYEENMFAELETVRGTSWQYELHQLQLANRKLKEQLEHYSNPKRKKQKKKSLGLADVPKICAQCQSTDSPEWRKGPNGPKELCNACGLRYAKSLSLKKAENSSVTV
- binding [2]: no binding
- binding [1]: no binding
- binding [3]: no binding
- binding [4]: no binding

B3: His-BTWC-1B (protein, UniProt A0A6G6CI19 1-732)
chain: MDPFQSFPVQFNPQIYESSNVPPSTNRLFSISGFQAGLMTNTQQINNTPRSISQAPSQRFLPPTSPTMNSQIENGSRYSGMYANTGFDMLSLLSRVVNRPNQQIDLGPVDLSCSFVVVDAKQYDFPIVYVSPSFERLTDYAPHEVIGRNCRFLQAPDGRVAIGSRRKYTDNSTVYHIKTHMVQGKESQSSIINYRKTGQPFVNLLTVIPISWESSDEIDYFVGLQVDLVEQPNSIFQSMKDGTYSVNYRNSAIPPSISSMQMNPEFSGEAVEVWKRPSSPKQMMGSSSTTTSAIPTNTNNNDTMQIGLSIEKETTNNHHPGHRSSDPDPSMDVETLIKEASTDEGKYRRCWHELLLDQSPDFIHVLTIKGIFLYCSDSTQQVLEYDPSELIGKSLKDICHPSDITTVMRELKQSSSDSAEPVNLIYRVRRKNSGYMWIESCGKLRNEDGRGRKYVVLSGRERPVYQLPRNALTVGNRAHDMRTPAETLMPGTEDHEFWGKLSTDGLLLYASWTCANILGSPPSDIVGTSLYHRMRSNRTTDLTRALAEVKEGKIVYLRHALVNNADLEVMVATTFYPDGRVSLEDPPSFVLMQTKVIDDESTLTDDEPVFVSMDPDVKKKGRADISLSTTGSTTSLRSNTERMIDELDITRDANWQYELHQLRISNKKLRDDLAILLQRAKQEGNEEVAHCHSCYRRLPGTSELSEFSMDEPLLCNTCSLRELPNTLATQQS
- binding [2]: no binding
- binding [1]: no binding
- binding [3]: no binding
- binding [4]: no binding
